Data taken from ChEMBL document CHEMBL3988442, “University of Dundee, Small-Polar-MMV Screening Library” (2021).

T. brucei: 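Whole-parasite assay of Trypanosoma brucei over 72 hours; the read-out is not stated. Tested at 30 µM. Direction is inferred from retests: higher values go with stronger inhibition. Values scatter widely below zero; nearly all retest evidence comes from the higher of the two concentrations used. Size under these conditions: about 64,000 compounds, about 940 of them at 50% or above in at least one test.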
Toxoplasma: 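Assay of Toxoplasma gondii numbers, read through their beta-galactosidase reporter with a colour substrate. Compounds at 10 µM. Higher reads as fewer parasites (inferred from which compounds were picked for retests). Size under these conditions: about 67,000 compounds, about 260 of them at 50% or above in at least one test.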

Each number is a percent effect as filed. The controls that fix the scale are not given in the record; negative values are as filed. The compounds are a random part of those screened. A dash means the value is not listed here; it may have been measured.

For Cc1cccnc1N1CCC(c2nccn2Cc2cscn2)CC1 the result was T. brucei: -0.4497%; Toxoplasma: 9.101%.
For [H][C@@]12CCCO[C@]1([H])[C@H](NC(=O)CC1CC1)CN(C(=O)c1ccoc1)C2 the result was T. brucei: -84.69%; Toxoplasma: -14.45%.
For Cc1nccn1C1CCCN(C(=O)CCc2nc(C(C)C)no2)C1 (centres unmarked) the result was T. brucei: -20.44%; Toxoplasma: -8.921%.
For O=C(NCCNc1ccc(C(F)(F)F)cn1)c1ccc(Br)cc1 the result was Toxoplasma: 12.12%.
For O=C(O)c1cc(S(=O)(=O)Nc2ccc(F)cc2F)cc2c1OCCO2 the result was T. brucei: -11.61%; Toxoplasma: -6.102%.
For CC(C)C(=O)NS(=O)(=O)c1ccc2c(c1)N(C)CCC2 the result was T. brucei: -17.66%; Toxoplasma: 2.58%.
For O=C(O)C(F)(F)F.O=C(O)C(F)(F)F.[H][C@@]12CN(Cc3ccoc3)C[C@]1([H])C(=O)N(CCN1CCCC1)C2 the result was T. brucei: -9.278%; Toxoplasma: -28.07%.
For Cn1ncc(NC(=O)c2noc3c2CCCC3)c1C(=O)N1CCCCC1 the result was T. brucei: 14.3%; Toxoplasma: -16.37%.
For CN(Cc1ccco1)Cc1ccccc1CNC(=O)c1csnn1 the result was T. brucei: -39.14%; Toxoplasma: -1.138%.
For Cc1c(Br)cnn1CC(=O)Nc1ccon1 the result was T. brucei: -23.14%; Toxoplasma: 4.027%.
For CN(Cc1cc2n(n1)CCNC2)Cc1n[nH]c2c1CCCCC2 the result was T. brucei: -80.85%; Toxoplasma: 24.02%.
For O=C(NCCNc1ncccn1)C1CC(=O)N(C2CCCC2)C1 (centres unmarked) the result was T. brucei: -8.127%; Toxoplasma: 19.75%.
For CC(NC(=O)CCCOc1ccc(F)cc1)c1nnc2n1CCC2 (centres unmarked) the result was T. brucei: -21.16%; Toxoplasma: 10.22%.
For COc1ccc(C[C@H]2CN(Cc3ccoc3)CC[C@@H]2OC)cc1.O=C(O)C(F)(F)F the result was T. brucei: -8.959%; Toxoplasma: 12.1%.
For CCn1nc(C)c(NC(=O)CN(C)C(C)c2nccs2)c1C (centres unmarked) the result was T. brucei: 2.042%; Toxoplasma: -20.74%.
For COc1cc(Oc2ncccc2C(F)(F)F)ccc1CN1CCCC1 the result was Toxoplasma: -16.32%.
For CN(Cc1cc(-c2ccncc2)no1)Cc1nccn1C the result was T. brucei: -60.15%; Toxoplasma: -10.94%.
For CCCn1cnnc1-c1nc2c([nH]1)CC(c1ccc(Cl)cc1)CNC2=O (centres unmarked) the result was T. brucei: -22.42%; Toxoplasma: 2.786%.
For CCS(=O)(=O)N1CCC(c2nnc(CN3CCCCC3)n2C)CC1 the result was T. brucei: 4.611%; Toxoplasma: -4.792%.
For COCCc1noc(CN(C)C2CCCN(c3cccnn3)C2)n1 (centres unmarked) the result was T. brucei: -19.87%; Toxoplasma: 15.39%.
For Cc1cc(C)c2c(N3CCN(CCN4CCOCC4)CC3)ncnc2n1 the result was T. brucei: -8.432%; Toxoplasma: 19.13%.
For Cc1cc(C)n(CC2CN(CC(=O)NC3(C#N)CCCC3)CCO2)n1 (centres unmarked) the result was T. brucei: -3.467%; Toxoplasma: 3.919%.
For Cc1csc(CNC(=O)Nc2ccc3c(c2)OCO3)n1 the result was T. brucei: -4.451%; Toxoplasma: -16.98%.
For CCc1noc(CNc2nc(-c3cccnc3)nc3c2CCNCC3)n1 the result was T. brucei: 2.358%; Toxoplasma: -13.2%.
For O=C1NCC2=C1C(c1ccc(O)cc1)Nc1ccccc1N2 (centres unmarked) the result was T. brucei: 21.37%; Toxoplasma: 13.11%.
For CSCc1ccc(CNCCN2CCOCC2)o1 the result was T. brucei: -11.74%; Toxoplasma: 6.208%.
For COc1ncccc1C(=O)NCC(C)Oc1cccnc1 (centres unmarked) the result was T. brucei: -1.972%; Toxoplasma: -4.962%.
For Cc1ccc(CN2CC[C@@H](NS(C)(=O)=O)[C@@H]2Cc2ccncc2)o1.O=C(O)C(F)(F)F.O=C(O)C(F)(F)F the result was T. brucei: -78.43%; Toxoplasma: 0.1596%.
For COCCCN1CCN([C@@H]2c3ccccc3C3(CCNCC3)[C@H]2O)CC1 the result was T. brucei: -18.55%; Toxoplasma: -4.593%.
For Cc1cc(-c2nc(C3(NC(=O)OC(C)(C)C)CCC3)no2)on1 the result was T. brucei: 7.584%; Toxoplasma: -0.2401%.
For COCC(=O)N1CCC2(C1)c1ccccc1S(=O)(=O)N2C (centres unmarked) the result was T. brucei: -41.64%; Toxoplasma: 16.02%.
For COc1cccc(CN2CCOC(Cn3nc(C)cc3C)C2)c1 (centres unmarked) the result was T. brucei: -18.42%; Toxoplasma: 1.324%.
For Cc1cc(F)ccc1N1CCCC(NC(=O)CCCn2ccnc2)C1 (centres unmarked) the result was T. brucei: -24.96%; Toxoplasma: -14.58%.

Some entries from above, unchanged:

| compound | T. brucei | Toxoplasma |
|---|---|---|
| `Cc1nccn1C1CCCN(C(=O)CCc2nc(C(C)C)no2)C1` (centres unmarked) | -20.44% | -8.921% |
| `Cc1csc(CNC(=O)Nc2ccc3c(c2)OCO3)n1` | -4.451% | -16.98% |
| `COc1cc(Oc2ncccc2C(F)(F)F)ccc1CN1CCCC1` | - | -16.32% |
| `O=C(O)c1cc(S(=O)(=O)Nc2ccc(F)cc2F)cc2c1OCCO2` | -11.61% | -6.102% |